Some of these results come from one statement about several compounds together.
Target: T1, histamine H3 receptor (Rattus norvegicus, UniProt Q9QYN8)
T1 construct: synthesized from [^3 H]histidine by synaptosomes of rat cerebral cortex; from tissue; host or cells: rat cerebral cortex synaptosomes
Test: H3 agonist effect: inhibition of [3H]histamine release from synaptosomes of rat cerebral cortex
Assay type: biochemical
Conditions: in words
Method: The partial agonist effect of the compounds is evaluated by comparison of the maximum inhibition which they induce relative to the maximum inhibition induced by exogenous histamine or [R]-α-methylhistamine; the ratio of these two values giving the intrinsic activity of the compound with respect to the system.

The chains behind the UniProt entries cited, without tags or fusion partners. Where a name states a change or a piece, a line headed by the entry shows the natural chain unless it says otherwise.
UniProt Q9QYN8: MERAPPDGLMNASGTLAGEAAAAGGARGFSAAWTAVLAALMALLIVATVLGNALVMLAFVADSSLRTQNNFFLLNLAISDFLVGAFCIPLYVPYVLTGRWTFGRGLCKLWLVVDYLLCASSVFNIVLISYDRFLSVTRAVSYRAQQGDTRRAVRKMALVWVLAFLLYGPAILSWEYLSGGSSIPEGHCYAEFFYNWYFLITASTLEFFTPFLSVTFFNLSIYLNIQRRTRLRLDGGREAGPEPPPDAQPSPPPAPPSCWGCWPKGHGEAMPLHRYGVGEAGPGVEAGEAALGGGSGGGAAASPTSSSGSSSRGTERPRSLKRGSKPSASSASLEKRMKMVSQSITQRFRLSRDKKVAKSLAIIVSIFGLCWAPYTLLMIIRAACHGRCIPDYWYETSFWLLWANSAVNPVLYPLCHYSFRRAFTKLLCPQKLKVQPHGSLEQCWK

SMILES | functional class at the histamine H3 receptors (agonists)
CC(=O)c1cccc(SCCc2c[nH]cn2)c1.O=C(O)C(=O)O [Example 157, 4-[2-(3-Ethanoylphenylthio)ethyl]-1H-imidazole oxalate] | agonists or partial agonists
CC(Cc1c[nH]cn1)Sc1cccc(C(F)(F)F)c1.O=C(O)C(=O)O (stereo not shown) [Example 159, 4-[2-(3-Trifluoromethylphenylthio)propyl]-1H-imidazole oxalate] | agonists or partial agonists
CC(=NO)c1cccc(OCCCc2c[nH]cn2)c1.O=C(O)C(=O)O [Example 158, 4-[3-(3-(1-Hydroxyiminoethyl)phenoxy)propyl]-1H-imidazole oxalate] | agonists or partial agonists
CCC(O)c1cccc(OCCCc2c[nH]cn2)c1 (stereo not shown) [Example 19, 4-[3-(3-(1-Hydroxypropyl)phenoxy)propyl]-1H-imidazole] | agonists or partial agonists

From patent US6248765A, “Imidazole derivatives as histamine receptor H3 (ANT) agonists” (priority 1995, dated 2001)
